Among all 400,000 compounds or so, about 13,000 (3.2%) were called active. The inconclusive results got no clear call from the source; some entries with a clear call stand among them for comparison. The call rests on the fitted dose curve; in most records, active means well fitted cell-killing curve with a large enough effect; inconclusive means small, poorly fitted or top-dose-only effect, or effect the other way; inactive means flat fitted curve, though single readings scatter. Where the call is inconclusive, the potency comes from a doubtful curve fit.
Experiment: qHTS assay for MDR1-selective chemotherapeutics: Primary screen using the drug-selected MDR subline cells KB-V1; further: nearly all actives have a fitted effect of over 60% in size
Details: KB-V1 MDR cells viability, CellTiter-Glo, 72 h; activity change, negative = cytotoxicity: at 46.1 µM (top of the series)
Method in brief: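 Cytotoxicity toward P-gp-expressing KB-V1 cells was determined as loss of CellTiter-Glo luminescence after 72 h at 37 degrees C. Compounds were tested in quantitative HTS format across a concentration range, with curves fitted to normalized data.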
On the % scale 0 is the no-effect control and ±100 the full control effect; potency means the concentration at half of the fitted maximal effect.

SMILES	Potency	activity change, negative = cytotoxicity
CCn1nnnc1-c1ccc(OC)c(S(=O)(=O)NCCc2ccccc2)c1	inconclusive: 16.4 µM [cytotoxic, partial curve, poor fit]	–
CC1CCN(C(=O)COC(=O)c2ccc([N+](=O)[O-])o2)CC1	inconclusive: 2.59 µM [rising, partial curve, poor fit]	–
CSCC[C@H](NC(=O)c1ccc(Cl)c([N+](=O)[O-])c1)c1nc2ccccc2[nH]1	–	inconclusive: -86.4%
COc1ccc(-c2cc(C(F)(F)F)n3nc(C(=O)N(C)Cc4ccccc4)cc3n2)cc1OC	inconclusive: 4.61 µM [cytotoxic, partial curve]	–
O=S1(=O)CCO[C@H]2CCCC[C@@H]2N1Cc1ccccc1F	–	inactive: -15.1%
CC(Sc1nc2c(cc1C#N)CCCCC2)C(=O)O (stereo unspecified)	inconclusive: 0.651 µM [rising, full curve, poor fit]	–
COc1ccc(NC(=O)CN2C(=O)C3(SCC(=O)N3c3cccc(OC)c3)c3ccccc32)cc1 (stereo unspecified)	–	inactive: -5.86%
Cc1cccc(Oc2ccc(S(=O)(=O)N3CCCCC3)cc2N)c1	inconclusive: 29.1 µM [cytotoxic, single point]	–
Cc1cccn2c(=O)c3cc(S(=O)(=O)c4ccccc4)c(=N)n(Cc4ccco4)c3nc12	inconclusive: 18.4 µM [rising, single point]	–
COc1ccc(CNC(=O)C/C(C)=N/NC(=O)c2ccc(OC)cc2OC)cc1	–	inactive: -11.2%
O=C(CSc1nc2ccsc2c(=O)n1Cc1ccccc1Cl)NCc1ccc(Cl)cc1	–	inconclusive: 0%
COc1ccc(Nc2oc(-c3ccccc3)nc2C#N)cc1	–	inconclusive: 32.4%
Cn1cc([N+](=O)[O-])c(C(=O)Nc2ccn(Cc3c(F)c(F)cc(F)c3F)n2)n1	inconclusive: 23.1 µM [cytotoxic, single point]	–
COc1ccc(/C=C2/CCc3ccccc3C2=O)cc1OC	inconclusive: 23.1 µM [cytotoxic, single point]	–
O=S(=O)(c1cccs1)N1CCN(CC(O)COc2cc(Cl)ccc2Cl)CC1 (stereo unspecified)	active: 8.2 µM	–
CCn1cc(Cl)c(C(=O)Nc2nc3ccccc3n2CCN2CCCCC2)n1	–	inactive: 13.2%
COc1ccc(N2CCN(C(=O)C3CCCN3S(=O)(=O)c3cccc4nsnc34)CC2)cc1 (stereo unspecified)	–	inactive: -9.94%
Cc1ccc(S(=O)(=O)NC(=O)NC(=O)N(C)S(=O)(=O)c2ccc(C)cc2)cc1	–	inactive: 72.7%
Cc1ccc(S(=O)(=O)NCCc2csc3nc(-c4ccccc4C)nn23)cc1	–	inactive: 22.8%
[N-]=[N+]=NCCN1CCN(Cc2ccccc2)CCC1=O	inconclusive: 3.66 µM [cytotoxic, partial curve, poor fit]	–
CC(CNC(=O)c1cc(COc2c(F)cccc2F)on1)c1ccccc1 (stereo unspecified)	inconclusive: 29.1 µM [cytotoxic, single point]	–
CCOc1ccccc1NC(=S)NCCCn1ccnc1	inconclusive: 29.1 µM [rising, single point]	–
Cc1ccc2nc(C)c(C(=O)N/N=C/c3cccs3)cc2c1	–	inactive: -2.94%
S=C1NCN(Cc2cccnc2)CN1Cc1ccccc1	–	inconclusive: 14.6%

Reformatted: results already given
SMILES,Potency,"activity change, negative = cytotoxicity"
Cc1cccn2c(=O)c3cc(S(=O)(=O)c4ccccc4)c(=N)n(Cc4ccco4)c3nc12,"inconclusive: 18.4 µM [rising, single point]",–
COc1ccc(CNC(=O)C/C(C)=N/NC(=O)c2ccc(OC)cc2OC)cc1,–,inactive: -11.2%
O=C(CSc1nc2ccsc2c(=O)n1Cc1ccccc1Cl)NCc1ccc(Cl)cc1,–,inconclusive: 0%

The listing continues.

SMILES	Potency	activity change, negative = cytotoxicity
CCOC(=O)N1CCN(Cc2nc(-c3ccc(OC)cc3)no2)CC1	active: 8.2 µM	–
Clc1ccc(CSc2nnc(-c3ccccn3)n2Cc2ccco2)c(Cl)c1	active: 10.3 µM	–
CCOC(=O)c1c[nH]n(-c2ccc(C)cc2)c1=O	inconclusive: 13 µM [rising, partial curve, poor fit]	–
CCc1ccc(-c2cn(-c3nc(C)cc(C)n3)c(=N)o2)cc1	inconclusive: 25.9 µM [cytotoxic, single point]	–
COc1ccc2oc(C(=O)Nc3nc4ccccc4[nH]3)c(C)c2c1	inconclusive: 5.8 µM [cytotoxic, partial curve]	–
CCOC(=O)c1cnc(SC)nc1Nc1cccc(F)c1	active: 14.6 µM	–
COc1ccc2c(c1)c(C(=O)O)c(C)n2CCc1ccc(OC)c(OC)c1	inconclusive: 18.4 µM [cytotoxic, partial curve, poor fit]	–
COc1ccc(NC(=S)N2CCCC(c3nc4ccc(C)cc4[nH]3)C2)cc1 (stereo unspecified)	inconclusive: 16.4 µM [cytotoxic, single point]	–
CCOc1ccccc1C(=O)NC(C)CCc1ccccc1 (stereo unspecified)	inconclusive: 18.4 µM [cytotoxic, partial curve, poor fit]	–
Cc1ccc2cc(C(c3nnnn3C3CCCC3)N(Cc3cccnc3)Cc3ccco3)c(=O)[nH]c2c1 (stereo unspecified)	inconclusive: 10.3 µM [cytotoxic, partial curve, poor fit]	–
CCOc1ccc(N2CC(c3nc4ccccc4n3CCOc3ccc(CC)cc3)CC2=O)cc1 (stereo unspecified)	–	inactive: 5.02%
COc1ccc(N2CC(NC(=O)c3c(F)cccc3Cl)CC2=O)cc1OC (stereo unspecified)	–	inactive: 42.9%
Cc1cccc(-n2cnc(C(=O)N/N=C/c3ccccc3)c2)n1	–	inactive: -2%
C=C(C)CNC(=S)N/N=C/C1=CCC2CC1C2(C)C (stereo unspecified)	inconclusive: 25.9 µM [cytotoxic, single point]	–
COc1ccccc1OC(C)C(=O)Nc1nc(-c2ccc(S(=O)(=O)N3CCOCC3)cc2)cs1 (stereo unspecified)	active: 4.61 µM	–
Cc1ccc(S(=O)(=O)Nc2cccc(NC(=O)CN3CCCCC3)c2)cc1	inconclusive: 9.2 µM [cytotoxic, partial curve]	–
COc1ccc(CNC(=O)c2cc(S(=O)(=O)N3CCOCC3)cn2C)cc1	–	inconclusive: 13%
Clc1cc(Br)ccc1OCCn1ccnc1	inconclusive: 23.1 µM [cytotoxic, single point]	–
C(=NN=C1c2ccccc2-c2ccccc21)c1c[nH]c2ccccc12	active: 23.1 µM	–
Cc1cc(=O)[nH]c(-n2nc(C)c(Oc3ccccc3O)c2C)n1	inconclusive: 20.6 µM [cytotoxic, single point]	–
O=C(Nc1ccccc1)N(Cc1ccccc1)C1=NCCS1	–	inactive: 0%
CC(=O)N1CCN(C(=O)COC(=O)CNC(=O)c2ccc(C)cc2)CC1	inconclusive: 20.6 µM [rising, single point]	–
COc1ccc(S(=O)(=O)NN(C)c2nc(C(F)(F)F)nc3ccccc23)cc1	inconclusive: 20.6 µM [cytotoxic, single point]	–
O=C(Cc1ccccc1)NCC(=O)N/N=C/c1ccc([N+](=O)[O-])s1	inconclusive: 16.4 µM [cytotoxic, single point]	–

SMILES	Potency	activity change, negative = cytotoxicity
Cc1ccc(NC(=O)c2cc(S(=O)(=O)Nc3ccc(C)cc3)cs2)cc1	active: 4.11 µM	–
Cn1cc(CN2CCC(CO)CC2)c(-c2ccc(Oc3ccccc3)cc2)n1	inconclusive: 0.517 µM [cytotoxic, full curve, poor fit]	–
CC1=C(C(=O)Nc2cccc(C(F)(F)F)c2)C(c2ccccc2)n2ncnc2N1 (stereo unspecified)	inconclusive: 29.1 µM [rising, single point]	–
COc1ccc(F)cc1C(=O)C1CCCN(C(=O)CSc2ccccn2)C1 (stereo unspecified)	inconclusive: 8.2 µM [cytotoxic, partial curve]	–
Cn1ncc([N+](=O)[O-])c1C(=O)n1nnc2ccccc21	inconclusive: 29.1 µM [cytotoxic, partial curve, poor fit]	–
O=C(C[C@@H]1C/C=C\CCCC(=O)OC[C@@H](c2ccccc2)NC1=O)NCCO	inconclusive: 16.4 µM [rising, single point]	–
Cc1ccc(OCC(=O)Nc2cccc(S(=O)(=O)N3CCCCCC3)c2)c([N+](=O)[O-])n1	inconclusive: 7.31 µM [cytotoxic, partial curve]	–
Cc1nc2c(c(=O)n1CCC1=CCCCC1)c1nc3ccccc3nc1n2/N=C/c1ccco1	inconclusive: 29.1 µM [cytotoxic, single point]	–
CCCCCCCCCn1ccc(=N)cc1	active: 16.4 µM	–
Cc1ccc(C)c(N2CCN(c3nc4c(S(=O)(=O)c5ccccc5)nnn4c4ccc(Cl)cc34)CC2)c1	inconclusive: 16.4 µM [rising, partial curve, poor fit]	–
O=C(NC1CCN(Cc2ccccc2)CC1)C12CC3CC(CC(C3)C1)C2	active: 25.9 µM	–
O=C(COc1ccccc1F)Nc1nnc(C2CCCC2)s1	–	inactive: 27.4%
Cc1ccc(CCNC(=O)c2ccc(NC(=O)N3CCSc4ccccc43)cc2)cc1	–	inactive: 6.88%
Cc1ccc(S(=O)(=O)N(CC(=O)c2ccc(Cl)cc2)C(=O)N2CCN(C)CC2)cc1	inconclusive: 10.3 µM [rising, partial curve, poor fit]	–
CCCCc1c(-c2cccc(Br)c2)ncn1CCc1ccccc1OC	active: 10.3 µM	–
CCc1ccc2nc(N3C(=O)C(O)=C(C(=O)c4ccco4)C3c3cccs3)sc2c1 (stereo unspecified)	active: 5.8 µM	–
CCc1ccc2c(c1)c(=O)c(S(=O)(=O)c1ccccc1)cn2CC(=O)Nc1ccc(OC)cc1	inconclusive: 32.6 µM [rising, single point]	–
O=C1NC(=Nc2ccc(F)cc2)SC1Cc1ccc(F)cc1 (stereo unspecified)	–	inconclusive: -19.5%
CCCN(C(=O)c1cc2c(=O)oc3ccccc3c2s1)c1ccccc1C	–	inactive: 0%
Cc1ccc(NCC(=O)Nc2cccc(F)c2)cc1S(=O)(=O)N1CCCCCC1	–	inactive: -13.9%
COc1ccc(S(=O)(=O)N2CCCCCC2)cc1C(=O)N1CCN(c2ccccc2O)CC1	inconclusive: 20.6 µM [cytotoxic, single point]	–
CC(C)[C@H](NC(=O)c1cccc(S(=O)(=O)N2CCOCC2)c1)C(=O)Nc1nc2ccccc2s1	inconclusive: 18.4 µM [cytotoxic, single point]	–
COc1ccc(/C=N/Nc2ncc(-c3ccccc3)cn2)c(OC)c1	inconclusive: 32.6 µM [cytotoxic, single point]	–
